These are yes or no findings as the source states them, for the method shown. Binding seen in cells or lysates may run through a third protein. Some results given as binding are weak or reduced against the parent protein; the word gives no strength. Sequences can lack the tags named with a protein.
Key:
Assay in all cases: co-IP
[1] = molecular target: T1, FLAG-tagged SMG7 1-633 G100E (human) (UniProt Q92540)
T1 sequence: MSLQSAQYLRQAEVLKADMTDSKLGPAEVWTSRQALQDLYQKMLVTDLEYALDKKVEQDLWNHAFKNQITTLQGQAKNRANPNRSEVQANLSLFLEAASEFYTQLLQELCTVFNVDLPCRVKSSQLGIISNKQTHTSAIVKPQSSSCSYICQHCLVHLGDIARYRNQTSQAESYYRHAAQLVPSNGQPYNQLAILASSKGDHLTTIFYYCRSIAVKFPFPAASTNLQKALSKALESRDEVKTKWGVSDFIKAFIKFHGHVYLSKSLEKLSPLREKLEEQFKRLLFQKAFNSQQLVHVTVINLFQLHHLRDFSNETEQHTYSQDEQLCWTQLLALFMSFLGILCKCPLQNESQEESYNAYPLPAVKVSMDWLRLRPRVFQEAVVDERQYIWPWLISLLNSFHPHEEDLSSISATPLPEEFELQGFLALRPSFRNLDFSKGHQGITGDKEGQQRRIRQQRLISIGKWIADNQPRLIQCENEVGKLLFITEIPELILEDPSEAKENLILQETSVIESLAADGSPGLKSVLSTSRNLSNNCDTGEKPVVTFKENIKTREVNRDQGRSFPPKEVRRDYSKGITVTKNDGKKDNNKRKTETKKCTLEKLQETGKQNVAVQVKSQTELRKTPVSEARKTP

[2] = molecular target: T2, FLAG-tagged SMG7 G100E (full length) (human) (UniProt Q92540)
T2 sequence: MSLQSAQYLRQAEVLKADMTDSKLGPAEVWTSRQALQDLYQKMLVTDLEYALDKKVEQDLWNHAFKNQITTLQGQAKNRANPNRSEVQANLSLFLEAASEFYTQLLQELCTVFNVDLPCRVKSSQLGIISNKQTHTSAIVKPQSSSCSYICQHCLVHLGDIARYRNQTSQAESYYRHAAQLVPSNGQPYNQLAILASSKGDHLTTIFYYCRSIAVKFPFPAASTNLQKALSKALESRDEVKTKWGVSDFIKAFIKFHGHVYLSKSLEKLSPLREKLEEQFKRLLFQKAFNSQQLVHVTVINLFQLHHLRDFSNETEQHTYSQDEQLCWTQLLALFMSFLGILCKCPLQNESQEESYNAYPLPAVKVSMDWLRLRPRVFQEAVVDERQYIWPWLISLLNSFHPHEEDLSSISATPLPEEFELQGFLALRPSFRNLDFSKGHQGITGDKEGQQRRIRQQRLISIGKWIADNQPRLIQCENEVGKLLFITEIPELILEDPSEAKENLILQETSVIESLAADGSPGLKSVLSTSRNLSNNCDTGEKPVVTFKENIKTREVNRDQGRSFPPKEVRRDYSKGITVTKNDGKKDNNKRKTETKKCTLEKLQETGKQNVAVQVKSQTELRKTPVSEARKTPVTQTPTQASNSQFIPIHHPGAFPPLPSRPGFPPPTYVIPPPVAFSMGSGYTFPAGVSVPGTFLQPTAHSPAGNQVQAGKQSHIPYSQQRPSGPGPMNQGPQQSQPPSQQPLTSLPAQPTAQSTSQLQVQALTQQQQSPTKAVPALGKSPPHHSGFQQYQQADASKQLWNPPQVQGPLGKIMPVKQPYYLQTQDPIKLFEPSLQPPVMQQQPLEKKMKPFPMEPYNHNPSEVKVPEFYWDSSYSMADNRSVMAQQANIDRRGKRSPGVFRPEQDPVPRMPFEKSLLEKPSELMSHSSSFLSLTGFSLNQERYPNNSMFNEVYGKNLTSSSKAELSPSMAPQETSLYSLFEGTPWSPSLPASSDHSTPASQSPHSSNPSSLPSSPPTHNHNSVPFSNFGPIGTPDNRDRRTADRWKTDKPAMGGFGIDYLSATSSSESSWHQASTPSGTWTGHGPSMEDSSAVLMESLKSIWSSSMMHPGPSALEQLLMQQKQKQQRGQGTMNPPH

[3] = molecular target: T3, FLAG-tagged SMG7 1-633 (human) (UniProt Q92540)
T3 sequence: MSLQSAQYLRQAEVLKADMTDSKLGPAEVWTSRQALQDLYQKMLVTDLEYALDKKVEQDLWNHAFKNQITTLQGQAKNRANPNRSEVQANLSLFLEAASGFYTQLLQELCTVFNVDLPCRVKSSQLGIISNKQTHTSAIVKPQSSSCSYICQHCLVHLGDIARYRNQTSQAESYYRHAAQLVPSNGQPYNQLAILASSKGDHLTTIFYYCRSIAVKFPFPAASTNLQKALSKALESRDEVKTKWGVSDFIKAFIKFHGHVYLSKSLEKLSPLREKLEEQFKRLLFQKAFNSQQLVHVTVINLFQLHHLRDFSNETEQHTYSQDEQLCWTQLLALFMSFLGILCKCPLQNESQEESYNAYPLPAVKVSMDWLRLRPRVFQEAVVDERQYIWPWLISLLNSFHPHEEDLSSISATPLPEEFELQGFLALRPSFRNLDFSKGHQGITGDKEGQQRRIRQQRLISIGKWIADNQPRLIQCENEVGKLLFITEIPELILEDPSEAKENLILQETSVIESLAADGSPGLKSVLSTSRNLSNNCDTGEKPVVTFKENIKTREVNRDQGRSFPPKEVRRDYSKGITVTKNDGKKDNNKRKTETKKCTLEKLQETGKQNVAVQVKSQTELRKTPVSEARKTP

[4] = molecular target: T4, FLAG-tagged SMG7 wild type (human) (UniProt Q92540)
T4 sequence: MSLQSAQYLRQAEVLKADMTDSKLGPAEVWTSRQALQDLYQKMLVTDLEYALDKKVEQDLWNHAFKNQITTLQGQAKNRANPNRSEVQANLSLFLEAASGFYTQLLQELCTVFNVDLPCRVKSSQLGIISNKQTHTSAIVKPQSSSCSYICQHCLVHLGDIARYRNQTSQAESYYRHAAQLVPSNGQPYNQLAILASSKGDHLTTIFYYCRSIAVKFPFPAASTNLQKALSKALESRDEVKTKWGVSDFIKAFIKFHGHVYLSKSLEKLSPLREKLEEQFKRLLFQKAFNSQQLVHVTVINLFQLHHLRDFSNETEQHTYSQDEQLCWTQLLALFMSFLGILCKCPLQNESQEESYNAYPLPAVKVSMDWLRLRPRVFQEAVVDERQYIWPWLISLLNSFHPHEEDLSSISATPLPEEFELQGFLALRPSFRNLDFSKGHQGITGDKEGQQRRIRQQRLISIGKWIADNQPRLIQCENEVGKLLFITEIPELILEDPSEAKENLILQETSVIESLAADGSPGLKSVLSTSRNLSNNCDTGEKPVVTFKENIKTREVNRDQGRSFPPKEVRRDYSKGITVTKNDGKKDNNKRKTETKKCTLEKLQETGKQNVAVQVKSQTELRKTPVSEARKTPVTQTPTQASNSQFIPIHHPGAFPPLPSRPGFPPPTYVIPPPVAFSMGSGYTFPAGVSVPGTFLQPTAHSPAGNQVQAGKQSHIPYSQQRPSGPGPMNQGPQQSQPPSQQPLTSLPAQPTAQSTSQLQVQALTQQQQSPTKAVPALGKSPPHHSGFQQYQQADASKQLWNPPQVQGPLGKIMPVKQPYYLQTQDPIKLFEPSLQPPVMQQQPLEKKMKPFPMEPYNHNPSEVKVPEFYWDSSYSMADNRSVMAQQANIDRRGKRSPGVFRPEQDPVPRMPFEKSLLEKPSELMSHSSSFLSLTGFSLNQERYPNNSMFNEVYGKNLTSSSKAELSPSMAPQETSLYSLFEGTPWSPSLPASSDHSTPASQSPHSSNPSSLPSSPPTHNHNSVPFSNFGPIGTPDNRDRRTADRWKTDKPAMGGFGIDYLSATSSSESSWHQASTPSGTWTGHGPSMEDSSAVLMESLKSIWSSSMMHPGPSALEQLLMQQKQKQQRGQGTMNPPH

Measured: binding

B1: UPF1 (protein, UniProt Q92900 1-1129)
chain: MSVEAYGPSSQTLTFLDTEEAELLGADTQGSEFEFTDFTLPSQTQTPPGGPGGPGGGGAGGPGGAGAGAAAGQLDAQVGPEGILQNGAVDDSVAKTSQLLAELNFEEDEEDTYYTKDLPIHACSYCGIHDPACVVYCNTSKKWFCNGRGNTSGSHIVNHLVRAKCKEVTLHKDGPLGETVLECYNCGCRNVFLLGFIPAKADSVVVLLCRQPCASQSSLKDINWDSSQWQPLIQDRCFLSWLVKIPSEQEQLRARQITAQQINKLEELWKENPSATLEDLEKPGVDEEPQHVLLRYEDAYQYQNIFGPLVKLEADYDKKLKESQTQDNITVRWDLGLNKKRIAYFTLPKTDSGNEDLVIIWLRDMRLMQGDEICLRYKGDLAPLWKGIGHVIKVPDNYGDEIAIELRSSVGAPVEVTHNFQVDFVWKSTSFDRMQSALKTFAVDETSVSGYIYHKLLGHEVEDVIIKCQLPKRFTAQGLPDLNHSQVYAVKTVLQRPLSLIQGPPGTGKTVTSATIVYHLARQGNGPVLVCAPSNIAVDQLTEKIHQTGLKVVRLCAKSREAIDSPVSFLALHNQIRNMDSMPELQKLQQLKDETGELSSADEKRYRALKRTAERELLMNADVICCTCVGAGDPRLAKMQFRSILIDESTQATEPECMVPVVLGAKQLILVGDHCQLGPVVMCKKAAKAGLSQSLFERLVVLGIRPIRLQVQYRMHPALSAFPSNIFYEGSLQNGVTAADRVKKGFDFQWPQPDKPMFFYVTQGQEEIASSGTSYLNRTEAANVEKITTKLLKAGAKPDQIGIITPYEGQRSYLVQYMQFSGSLHTKLYQEVEIASVDAFQGREKDFIILSCVRANEHQGIGFLNDPRRLNVALTRARYGVIIVGNPKALSKQPLWNHLLNYYKEQKVLVEGPLNNLRESLMQFSKPRKLVNTINPGARFMTTAMYDAREAIIPGSVYDRSSQGRPSSMYFQTHDQIGMISAGPSHVAAMNIPIPFNLVMPPMPPPGYFGQANGPAAGRGTPKGKTGRGGRQKNRFGLPGPSQTNLPNSQASQDVASQPFSQGALTQGYISMSQPSQMSQPGLSQPELSQDSYLGDEFKSQIDVALSQDSTYQGERAYQHGGVTGLSQY
binds: [1] | [2] | [3] | [4]
